Assay results: doi:10.1101/2022.10.30.514401

Sequences of proteins named here, by UniProt entry; tags and fusion partners are left off.
UniProt P63101: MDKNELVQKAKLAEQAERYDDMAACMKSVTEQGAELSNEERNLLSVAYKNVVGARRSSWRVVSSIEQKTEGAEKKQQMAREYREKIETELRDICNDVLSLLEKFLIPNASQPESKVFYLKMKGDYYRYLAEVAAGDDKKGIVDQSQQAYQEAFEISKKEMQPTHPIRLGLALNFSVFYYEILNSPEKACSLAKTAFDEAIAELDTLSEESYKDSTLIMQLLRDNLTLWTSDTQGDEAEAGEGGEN

Molecular target: T1, Lipolysis-stimulated lipoprotein receptor (LSR) (mouse (endogenous in mouse ISCs)) (UniProt Q99KG5)
T1 sequence: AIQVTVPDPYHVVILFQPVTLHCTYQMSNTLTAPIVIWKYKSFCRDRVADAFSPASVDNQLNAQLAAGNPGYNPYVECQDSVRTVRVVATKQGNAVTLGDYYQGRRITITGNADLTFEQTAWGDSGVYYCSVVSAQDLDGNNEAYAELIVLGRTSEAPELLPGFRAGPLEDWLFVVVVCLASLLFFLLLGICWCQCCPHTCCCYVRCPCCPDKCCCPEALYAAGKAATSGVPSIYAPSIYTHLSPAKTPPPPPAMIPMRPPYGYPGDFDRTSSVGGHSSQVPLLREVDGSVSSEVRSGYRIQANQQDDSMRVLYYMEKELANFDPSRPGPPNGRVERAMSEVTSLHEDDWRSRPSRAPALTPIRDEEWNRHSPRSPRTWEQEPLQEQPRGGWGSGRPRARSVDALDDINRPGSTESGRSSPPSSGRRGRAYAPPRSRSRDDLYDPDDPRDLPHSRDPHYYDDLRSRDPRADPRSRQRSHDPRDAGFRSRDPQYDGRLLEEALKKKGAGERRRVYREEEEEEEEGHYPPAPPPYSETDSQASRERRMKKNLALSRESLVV
Test: affinity purification with mass spectrometry

binding: binds
Substance: 14-3-3 zeta (from UniProt P63101 1-245)

Results are given in words; binding and its absence hold for the method and conditions named. Binding seen in cells or lysates may run through a third protein. Here binding means that the protein was enriched with, or labelled near, the bait; the list need not be complete.
